The supplement of paper PMC12889115
Some of the results follow. Values are raw readings; no control value is given beside them.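 Primary screen: polymyxin B was added at a level permeabilizing Salmonella outer membranes while sparing inner membranes. DMSO wells, both with and without polymyxin B, established maximum growth. Plate-to-plate variation meant each plate was ranked on its own, and the lowest-OD600 compounds were selected as hits.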

Tested on: Salmonella enterica serovar Typhimurium SL1344
Assay: bacterial growth OD600 after 18 h with compound and polymyxin B; higher = more bacterial growth (less inhibition)
Conditions: 50 µM, Mueller-Hinton broth

| Structure (SMILES) | bacterial growth OD600 (polymyxin B 1 µg/mL) | bacterial growth OD600 (polymyxin B 0.75 µg/mL) |
| --- | --- | --- |
| O=C(NC1CC(=O)N(Cc2cccc(F)c2)C1)C1CCCCCC1 (configuration not stated) | 0.945 | – |
| COc1ccc(CCN2CC(NC(=O)c3oc(C)cc3C)CC2=O)cc1 (configuration not stated) | 0.868 | – |
| Cc1ccccc1N1CCN(c2ncccc2CNC(=O)c2ncoc2C)CC1 | 0.03 | – |
| O=C(NCCc1cnccn1)c1coc(COc2ccccc2)n1 | 0.948 | – |
| COC(=O)c1cc(CNC(=O)[C@@H]2C[C@@H]3C=C[C@H]2C3)cc(NS(=O)(=O)c2ccc3c(c2)OCCO3)c1 | – | 0.883 |
| CSCCCNC(=O)c1cccc(OC2CCN(S(=O)(=O)N(C)C)CC2)c1 | 0.936 | – |
| COCCC(=O)NC1CC(=O)N(Cc2cccc3ccccc23)C1 (configuration not stated) | 0.952 | – |
| CSc1ccccc1C(=O)NC(C)c1cnn(-c2ccccn2)c1C (configuration not stated) | 1.23 | – |
| COc1cc(-c2cnc3ccccc3c2)cc2c1OCCN(S(=O)(=O)c1cc(F)ccc1C)C2 | – | 0.755 |
| Cc1cccc(CN2CCc3[nH]nc(-c4ccc5c(c4)OCO5)c3C2)n1 | – | 0.951 |
| O=C1N(CC2CCCCC2)CCCC1(O)CNC1CCC1 (configuration not stated) | – | 0.993 |
| COCc1ccc(C(=O)NCc2cccnc2N(C)C2CCCCC2)o1 | 0.756 | – |
| CCc1ocnc1C(=O)NC1CC(=O)N(CCc2cccc(Cl)c2)C1 (configuration not stated) | 0.033 | – |
| COc1ccc(OC)c(-c2nc(CN3CCCC3c3nonc3C)c(C)o2)c1 (configuration not stated) | 0.976 | – |
| CC#CCN1C(=O)NC(CCc2ccccc2)(C2CCN(Cc3ccc(CC)o3)CC2)C1=O (configuration not stated) | – | 0.714 |
| Cc1nonc1OCCNC(=O)c1csc2nc(-c3ccccc3)cn12 | 1.17 | – |

An excerpt from above in order of number of heavy atoms, rising.

| Structure (SMILES) | bacterial growth OD600 (polymyxin B 1 µg/mL) | bacterial growth OD600 (polymyxin B 0.75 µg/mL) |
| --- | --- | --- |
| O=C1N(CC2CCCCC2)CCCC1(O)CNC1CCC1 (configuration not stated) | – | 0.993 |
| COCCC(=O)NC1CC(=O)N(Cc2cccc3ccccc23)C1 (configuration not stated) | 0.952 | – |
| CCc1ocnc1C(=O)NC1CC(=O)N(CCc2cccc(Cl)c2)C1 (configuration not stated) | 0.033 | – |
| COCc1ccc(C(=O)NCc2cccnc2N(C)C2CCCCC2)o1 | 0.756 | – |
| CSCCCNC(=O)c1cccc(OC2CCN(S(=O)(=O)N(C)C)CC2)c1 | 0.936 | – |
| COc1ccc(OC)c(-c2nc(CN3CCCC3c3nonc3C)c(C)o2)c1 (configuration not stated) | 0.976 | – |
| COc1cc(-c2cnc3ccccc3c2)cc2c1OCCN(S(=O)(=O)c1cc(F)ccc1C)C2 | – | 0.755 |
| COC(=O)c1cc(CNC(=O)[C@@H]2C[C@@H]3C=C[C@H]2C3)cc(NS(=O)(=O)c2ccc3c(c2)OCCO3)c1 | – | 0.883 |

Next part.

| Structure (SMILES) | bacterial growth OD600 (polymyxin B 1 µg/mL) | bacterial growth OD600 (polymyxin B 0.75 µg/mL) |
| --- | --- | --- |
| CSc1cccc(CNC(C)c2cnn(-c3ccccc3)c2C)c1 (configuration not stated) | – | 0.769 |
| CCOC(=O)N1CCN(C(=O)c2ccc(N3CCC(NCc4cc(C)no4)CC3)cc2)CC1 | – | 0.86 |
| O=C(CCc1ccccc1)Nc1ccnn1C1CCN(S(=O)(=O)c2cccnc2)CC1 | – | 0.806 |
| CSCCC(=O)N1CCC(C(=O)Nc2ccc(Oc3ccccc3F)cc2)CC1 | 0.73 | – |
| CC(=O)C1CCCN(C(=O)c2cn(Cc3cccc(C(F)(F)F)c3)nn2)C1 (configuration not stated) | 0.872 | – |
| O=C(c1csc2nc(-c3cccc(F)c3)cn12)N1CCCC(CN2CCCC2)C1 (configuration not stated) | 1.17 | – |
| CN(Cc1ccc2nccnc2c1)Cc1c(C(=O)N(C)Cc2ccccc2)nc2ccccn12 | 1.08 | – |
| COc1ccc(CN2CCOc3ccc(C(O)Cc4ccccc4)cc3C2)c(OC)c1OC (configuration not stated) | – | 0.674 |
| COc1cccc(CC(C2CCN(C(=O)/C=C/c3ccc(F)cc3)CC2)N(C)C(=O)CC(C)C)c1 (configuration not stated) | – | 0.002 |
| Cc1nc2cc(OCc3cc(C(=O)N4CCCCCCC4)no3)ccc2s1 | – | 0.004 |
| CC(C)CC(=O)Nc1ccnn1C1CCN(C(=O)C(=O)CC(C)C)CC1 | – | 0.861 |
| COC(=O)CCC(=O)NC1CCCN(CCc2ccccc2)C1 (configuration not stated) | 1.01 | – |
| CCOC(=O)C1(Cc2ccccc2F)CCCN(C(=O)c2cc(C3CC3)on2)C1 (configuration not stated) | 0.005 | – |
| CC1CN(C(=O)c2csc3nc(-c4ccc(C(F)(F)F)cc4)cn23)CCN1C (configuration not stated) | 0.987 | – |
| COc1ccc(C(=O)N(C)CC2CCN(CCc3ccccc3OC)CC2)cc1F | 1.21 | – |
| O=C1CCC(C(=O)N2CCOc3ccccc3C2)CN1CCN1CCOCC1 (configuration not stated) | 0.742 | – |
